The subject of this assay is BDF1 mice, P388 leukemia ip, median survival T/C. The experiment in a line: NCI In Vivo Anticancer Drug Screen. Data for tumor model P388 Leukemia (intraperitoneal) in B6D2F1 (BDF1) mice. Particulars: T/C endpoint: median survival time, higher T/C = longer survival. An outline of the steps: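 T/C = treated-group survival ÷ vehicle-control survival; tumour transplanted into mice before dosing.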

The mark [1] stands for this setting: dose: 100.0 mg/kg/injection, schedule: Q01DX009 (ip), vehicle: saline with Tween-80.
Where [2] appears, read: dose: 100.0 mg/kg/injection, schedule: Q01DX009 (ip), vehicle: Klucel (hydroxypropylcellulose) (HPC).
Setting [3] is: dose: 400.0 mg/kg/injection, schedule: Q01DX009 (ip), vehicle: saline.
The mark [4] stands for this setting: dose: 6.25 mg/kg/injection, schedule: Q01DX009 (ip), vehicle: saline with Tween-80.
Setting [5] is: dose: 50.0 mg/kg/injection, schedule: Q01DX005 (ip), vehicle: saline with Tween-80.

The list shows only some results of the screen, not a fair sample: it is rich in T/C values a quarter to a half above the control, in often repeated tests (any T/C) and in doses without a T/C. Further doses and runs are listed elsewhere. T/C is the treated group as % of the vehicle group. Some doses have a count of surviving animals in place of a T/C: the source holds a T/C of zero for them, seemingly a mark for toxic or unscored doses. Some doses without a T/C left all or most animals alive at the check, yet need not have been tolerated: survival well below the control is almost never listed, so the zero probably covers shortened survival too. Survivors were counted at the toxicity check, usually on the fifth day, unless a day is given; later deaths do not show. Schedules are NCI's codes, taken here to give the interval after Q, in days (D) or hours (H), and the number of doses after X. Some doses were run more than once; their values stand side by side, smallest first. Some schedule codes hold Z or #, which are not explained here. For survival time, this PubChem deposit counts one and a half times the control or more as active, and values a quarter to a half above the control carry no call in these data; other NCI protocols may use other cut-offs. Some T/C values carry the count of animals alive at the toxicity check (mostly the fifth day); where none is given, no animal had died by that day. Starred links: 1 amine or outer side, 2 acyl side, 3 side chain; linkers in the order of their positions; H or OH if unused. Positions of bridges follow the written chain, without caps; N, C: chain ends. Non-standard residues stand in square brackets, D forms with d. Residues, ends and D or L forms follow the SMILES beside them. Chains are numbered I, II in the order given. Actinocin(9to1) = Cc1c2oc3c(C)ccc(C(=O)[*:1])c3nc-2c(C(=O)[*:2])c(N)c1=O; NMeV = CN[CH](C(=O)O)C(C)C; Aze = O=C(O)[CH]1CCN1; Sar = CNCC(=O)O

Consider `S=C(N/N=C1\CSCc2ccccc21)Nc1cc(Cl)ccc1Cl`, for which the survivor count under setting [1] is 6 of 6.
On to `Cc1c2oc3c(C)ccc(C(=O)NC4C(=O)NC(C(C)C)C(=O)N5CCC5C(=O)N(C)CC(=O)N(C)C(C(C)C)C(=O)OC4C)c3nc-2c(C(=O)NC2C(=O)NC(C(C)C)C(=O)N3CCC3C(=O)N(C)CC(=O)N(C)C(C(C)C)C(=O)OC2C)c(N)c1=O` (stereo unspecified) (I: TV[Aze][Sar][NMeV] / II: TV[Aze][Sar][NMeV]; ester I:1-I:C, II:1-II:C; linker I:N-II:N via Actinocin(9to1); configuration not given here), for which the T/C is 138 % of control (dose: 0.9 mg/kg/injection, schedule: Q04DX003 (ip), vehicle: saline); 129 % of control (dose: 1.3 mg/kg/injection, schedule: Q04DX003 (ip), vehicle: saline); 142 % of control (dose: 150.0 micrograms/kg/injection, schedule: Q04DX003 (ip), vehicle: saline + alcohol); 126 % of control (dose: 225.0 micrograms/kg/injection, schedule: Q04DX003 (ip), vehicle: saline + alcohol); 185 [7 of 8 alive], 212, 242, 256 % of control (dose: 300.0 micrograms/kg/injection, schedule: Q04DX003 (ip), vehicle: saline + alcohol); 132, 215, 270, 297, 302 % of control (dose: 600.0 micrograms/kg/injection, schedule: Q04DX003 (ip), vehicle: saline + alcohol). The T/C (dose: 1200.0 micrograms/kg/injection, schedule: Q04DX003 (ip), vehicle: saline + alcohol) is 145 % of control [7 of 8 alive].
`Cc1cc(NCCCCCCNc2cc(C)nc3ccc(N)cc23)c2cc(N)ccc2n1`: the survivor count (dose: 300.0 mg/kg/injection, schedule: Q04DX003 (ip), vehicle: Klucel (hydroxypropylcellulose) (HPC)) is recorded as 6 of 6.
As for `CCOP(=S)(N1CC1(C)C)N1CC1(C)C` (stereo unspecified), the survivor count is on record as 0 of 6 (dose: 400.0 mg/kg/injection, schedule: Q04DX003 (ip), vehicle: saline with Tween-80) and 0 of 6 (dose: 600.0 mg/kg/injection, schedule: Q04DX003 (ip), vehicle: saline with Tween-80).
Take `NNCc1c(C(=O)O)oc2ccccc12`: the survivor count (dose: 200.0 mg/kg/injection, schedule: Q01DX009 (ip), vehicle: saline with Tween-80) is 4 of 6.
With `O=C1C(Cl)=C(N2CCOCC2)C(=O)c2ccccc21`, the survivor count (dose: 50.0 mg/kg/injection, schedule: Q01DX009 (ip), vehicle: Klucel (hydroxypropylcellulose) (HPC)) is listed as 6 of 6.
Take `c1ccc(COCC[P+](c2ccccc2)(c2ccccc2)c2ccccc2)cc1`: the survivor count (dose: 20.0 mg/kg/injection, schedule: Q01DX010 (ip), vehicle: saline) is listed as 1 of 6.
On to `CO[C@H]1/C=C/O[C@@]2(C)Oc3c(C)c(O)c4c(O)c(c(/C=N/N5C(C)CN(Cc6ccccc6)CC5C)c(O)c4c3C2=O)NC(=O)/C(C)=C\C=C\[C@H](C)[C@H](O)[C@@H](C)[C@@H](O)[C@@H](C)[C@H](OC(C)=O)[C@@H]1C` (stereo partly specified), for which the survivor count was 8 of 8 (dose: 6.25 mg/kg/injection, schedule: Q01DX005 (ip), vehicle: other); 12 of 12 (dose: 25.0 mg/kg/injection, schedule: Q02DX Z (oral), vehicle: Klucel (hydroxypropylcellulose) (HPC)); 5 of 8 (dose: 200.0 mg/kg/injection, schedule: Q01DX005 (oral), vehicle: other); 5 of 8 (dose: 800.0 mg/kg/injection, schedule: Q01DX005 (ip), vehicle: Klucel (hydroxypropylcellulose) (HPC)); 12 of 12 (dose: 800.0 mg/kg/injection, schedule: Q02DX Z (oral), vehicle: Klucel (hydroxypropylcellulose) (HPC)); 11 of 12 (dose: 1600.0 mg/kg/injection, schedule: Q02DX Z (oral), vehicle: Klucel (hydroxypropylcellulose) (HPC)).
Take `COc1ccccc1NC(=O)c1ccc(Cl)cc1Cl`: under setting [2], the survivor count is recorded as 6 of 6.
For `CCOC(=O)C(C#N)C(C(C)=O)C(=O)OCC` (stereo unspecified), the survivor count under setting [1] is 6 of 6.
Consider `N#Cc1cccc(C[P+](c2ccccc2)(c2ccccc2)c2ccccc2)c1`, for which the T/C (dose: 26.25 mg/kg/injection, schedule: Q04DX003 (ip), vehicle: Klucel (hydroxypropylcellulose) (HPC)) is 125 % of control. The survivor count is, setting by setting: (dose: 55.0 mg/kg/injection, schedule: Q01DX009 (ip), vehicle: Klucel (hydroxypropylcellulose) (HPC)) 1 of 6; (dose: 80.0 mg/kg/injection, schedule: Q01DX009 (ip), vehicle: Klucel (hydroxypropylcellulose) (HPC)) 0 of 6; (dose: 105.0 mg/kg/injection, schedule: Q04DX003 (ip), vehicle: Klucel (hydroxypropylcellulose) (HPC)) 4 of 6.
Turning to `CCN(CC)C(=O)Cn1cc(F)c(N)nc1=O`, the survivor count under setting [3] is 4 of 6.
Take `Oc1ccc(Br)c2cccnc12`: the survivor count (dose: 400.0 mg/kg/injection, schedule: Q01DX010 (ip), vehicle: saline) is given as 2 of 6.
With `COc1cccc(CC(N)=O)c1OC`, the survivor count (dose: 400.0 mg/kg/injection, schedule: Q04DX003 (ip), vehicle: saline) is given as 6 of 6.
As to `CC([CH2][Hg][Cl])c1ccccc1` (stereo unspecified), the T/C under setting [4] is 127 % of control.
Take `NC(=S)N/N=C/c1cc(-c2cccc(N)c2)ccn1`: under setting [4], the T/C is 146 % of control. Moreover, the survivor count under setting [1] is 6 of 6.
Consider `COC1=C(N2CC2)C(=O)C(OC)=C(N2CC2)C1=O`, for which the T/C was 148 % of control (dose: 0.25 mg/kg/injection, schedule: Q01DX009 (ip), vehicle: saline) and 133 % of control (dose: 1.2 mg/kg/injection, schedule: Q04DX003 (ip), vehicle: saline with Tween-80). The survivor count by setting is: (dose: 4.0 mg/kg/injection, schedule: Q01DX009 (ip), vehicle: saline with Tween-80) 6 of 6; (dose: 8.0 mg/kg/injection, schedule: Q01DX009 (ip), vehicle: saline) 4 of 6.
For the molecule `CCCOc1cc([N+](=O)[O-])cc([N+](=O)[O-])c1`, under “dose: 400.0 mg/kg/injection, schedule: Q01DX001 (ip), vehicle: saline with Tween-80”, the survivor count is 1 of 6.
In the case of `Cn1ccn(C2CCCCC2)c1=O`, the survivor count (dose: 100.0 mg/kg/injection, schedule: Q04DX003 (ip), vehicle: saline with Tween-80) is reported as 6 of 6.
Take `CN(C)N=Nc1cn(C2OC(CO)C(O)C2O)c(=O)[nH]c1=O` (stereo unspecified): the T/C by setting is: (dose: 37.5 mg/kg/injection, schedule: Q01DX009 (ip), vehicle: saline) 140 % of control; (dose: 75.0 mg/kg/injection, schedule: Q01DX009 (ip), vehicle: saline) 125 % of control; (dose: 100.0 mg/kg/injection, schedule: Q01DX009 (ip), vehicle: saline) 125 % of control; (dose: 150.0 mg/kg/injection, schedule: Q01DX009 (ip), vehicle: saline) 145 % of control; (dose: 200.0 mg/kg/injection, schedule: Q01DX009 (ip), vehicle: saline) 141 % of control; (dose: 300.0 mg/kg/injection, schedule: Q01DX009 (ip), vehicle: saline) 91, 140, 180, 225, 300 % of control. The survivor count runs as follows: under setting [3], 5 of 6; (dose: 600.0 mg/kg/injection, schedule: Q01DX009 (ip), vehicle: saline) 1 of 6.
On to `Nc1c(Br)cc2c(c1Br)Cc1cc(Cl)ccc1-2`, for which the survivor count was 6 of 6 (dose: 25.0 mg/kg/injection, schedule: Q01DX009 (ip), vehicle: Klucel (hydroxypropylcellulose) (HPC)); 5 of 6 and 6 of 6 under setting [2]; 5 of 6 (dose: 200.0 mg/kg/injection, schedule: Q01DX009 (ip), vehicle: Klucel (hydroxypropylcellulose) (HPC)); 6 of 6 (dose: 200.0 mg/kg/injection, schedule: Q04DX003 (ip), vehicle: Klucel (hydroxypropylcellulose) (HPC)).
On to `Cc1cc(=O)oc2c(N)nccc12`, for which the T/C is 136 % of control (dose: 25.0 mg/kg/injection, schedule: Q01DX005 (ip), vehicle: saline with Tween-80) and 128 % of control under setting [5]. Further, the survivor count under setting [5] was 4 of 5; the survivor count (dose: 100.0 mg/kg/injection, schedule: Q01DX005 (ip), vehicle: saline with Tween-80) was 1 of 5 and 2 of 5; the survivor count (dose: 200.0 mg/kg/injection, schedule: Q01DX005 (ip), vehicle: saline with Tween-80) is recorded as 0 of 5.
With `O=C(O)/C=C/C(=O)Nc1cccc(Oc2ccc([N+](=O)[O-])cc2[N+](=O)[O-])c1`, the survivor count under setting [3] is given as 1 of 6.

(Values after PubChem BioAssay AID328 (DTP/NCI, 2004).)
